The other results are listed elsewhere or left out.
Compound: COc1ccc(Cn2ccc3cc(C)c(C(=O)NO)cc32)cc1
Test: dose-dependent thermal stabilisation call (2D-TPP, DLPTP, 10% FDR) (binary (1 = stabilised)); higher = stabilised by the compound
Conditions: system: HL-60 intact cells; concentration range 0.04-10 µM
Description: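 2D thermal proteome profiling in intact HL-60 cells treated with BRD-3811 (0, 0.04, 0.29, 2, 10 uM) for 90 min at 37 C, then heated 3 min at one of 12 temperatures (42-63.9 C). Soluble protein was quantified by TMT10 MS. The value is the DLPTP call of the paper: dose-dependent thermal stabilisation over all temperatures at 10% FDR (F-test of a dose-response against a flat model); one experiment, one call per tested protein.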

Protein sequences, listed by entry. Tags and fused reporters are not part of them. Lines headed by an entry give the natural chain unless they say otherwise; changes in a name come on top.
UniProt Q8IWV7: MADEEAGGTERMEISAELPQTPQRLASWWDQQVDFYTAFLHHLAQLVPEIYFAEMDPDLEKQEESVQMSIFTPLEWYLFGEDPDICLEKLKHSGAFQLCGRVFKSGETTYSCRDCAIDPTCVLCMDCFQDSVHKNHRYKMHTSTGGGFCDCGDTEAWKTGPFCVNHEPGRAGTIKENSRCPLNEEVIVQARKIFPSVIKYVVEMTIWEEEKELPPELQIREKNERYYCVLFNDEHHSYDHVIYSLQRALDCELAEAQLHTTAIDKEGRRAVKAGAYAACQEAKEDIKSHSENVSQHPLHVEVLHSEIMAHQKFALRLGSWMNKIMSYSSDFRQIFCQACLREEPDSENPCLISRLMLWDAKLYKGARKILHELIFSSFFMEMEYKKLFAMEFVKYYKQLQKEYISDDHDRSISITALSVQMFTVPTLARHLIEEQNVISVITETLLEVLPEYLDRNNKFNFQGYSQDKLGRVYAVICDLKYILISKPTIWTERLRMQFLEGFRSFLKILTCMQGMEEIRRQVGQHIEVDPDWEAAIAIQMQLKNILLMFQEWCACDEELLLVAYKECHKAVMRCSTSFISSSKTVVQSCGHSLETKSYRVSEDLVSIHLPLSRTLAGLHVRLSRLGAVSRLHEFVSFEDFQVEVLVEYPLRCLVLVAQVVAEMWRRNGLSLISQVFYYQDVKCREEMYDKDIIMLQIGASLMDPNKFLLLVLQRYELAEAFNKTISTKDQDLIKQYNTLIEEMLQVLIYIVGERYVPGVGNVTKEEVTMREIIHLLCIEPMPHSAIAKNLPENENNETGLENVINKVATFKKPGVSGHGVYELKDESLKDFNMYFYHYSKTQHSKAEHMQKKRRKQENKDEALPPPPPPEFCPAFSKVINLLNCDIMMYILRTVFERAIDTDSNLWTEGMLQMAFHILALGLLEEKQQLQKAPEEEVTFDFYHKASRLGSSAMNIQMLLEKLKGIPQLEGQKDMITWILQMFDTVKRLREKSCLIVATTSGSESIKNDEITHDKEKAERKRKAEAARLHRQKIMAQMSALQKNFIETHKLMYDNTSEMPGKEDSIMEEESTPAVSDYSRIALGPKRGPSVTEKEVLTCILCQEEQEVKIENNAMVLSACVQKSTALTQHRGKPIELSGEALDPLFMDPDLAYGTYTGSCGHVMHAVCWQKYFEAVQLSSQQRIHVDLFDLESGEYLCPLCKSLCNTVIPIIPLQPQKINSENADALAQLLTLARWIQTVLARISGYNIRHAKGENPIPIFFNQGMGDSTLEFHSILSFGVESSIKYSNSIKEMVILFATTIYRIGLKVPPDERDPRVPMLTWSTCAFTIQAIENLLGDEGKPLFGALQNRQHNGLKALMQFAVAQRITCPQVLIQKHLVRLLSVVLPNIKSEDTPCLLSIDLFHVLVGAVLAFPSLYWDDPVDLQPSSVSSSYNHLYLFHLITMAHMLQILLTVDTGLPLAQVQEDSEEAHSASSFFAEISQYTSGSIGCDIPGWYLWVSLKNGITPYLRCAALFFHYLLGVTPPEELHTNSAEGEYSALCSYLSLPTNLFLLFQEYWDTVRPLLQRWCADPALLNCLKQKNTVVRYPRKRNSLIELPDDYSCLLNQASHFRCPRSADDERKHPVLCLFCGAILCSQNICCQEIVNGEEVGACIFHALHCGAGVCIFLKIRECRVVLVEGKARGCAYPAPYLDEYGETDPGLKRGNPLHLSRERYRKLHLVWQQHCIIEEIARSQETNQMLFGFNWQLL
UniProt Q4G0F5, whole entry: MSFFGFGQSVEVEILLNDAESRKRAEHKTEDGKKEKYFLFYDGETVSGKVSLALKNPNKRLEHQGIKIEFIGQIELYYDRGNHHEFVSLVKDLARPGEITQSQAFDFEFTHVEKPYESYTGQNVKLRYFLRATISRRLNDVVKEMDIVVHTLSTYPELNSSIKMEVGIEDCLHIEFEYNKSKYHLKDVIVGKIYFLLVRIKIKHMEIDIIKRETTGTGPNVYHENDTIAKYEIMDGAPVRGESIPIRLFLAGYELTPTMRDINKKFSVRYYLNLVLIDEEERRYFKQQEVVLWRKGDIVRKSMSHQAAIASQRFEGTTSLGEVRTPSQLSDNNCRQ
UniProt Q8N3P4: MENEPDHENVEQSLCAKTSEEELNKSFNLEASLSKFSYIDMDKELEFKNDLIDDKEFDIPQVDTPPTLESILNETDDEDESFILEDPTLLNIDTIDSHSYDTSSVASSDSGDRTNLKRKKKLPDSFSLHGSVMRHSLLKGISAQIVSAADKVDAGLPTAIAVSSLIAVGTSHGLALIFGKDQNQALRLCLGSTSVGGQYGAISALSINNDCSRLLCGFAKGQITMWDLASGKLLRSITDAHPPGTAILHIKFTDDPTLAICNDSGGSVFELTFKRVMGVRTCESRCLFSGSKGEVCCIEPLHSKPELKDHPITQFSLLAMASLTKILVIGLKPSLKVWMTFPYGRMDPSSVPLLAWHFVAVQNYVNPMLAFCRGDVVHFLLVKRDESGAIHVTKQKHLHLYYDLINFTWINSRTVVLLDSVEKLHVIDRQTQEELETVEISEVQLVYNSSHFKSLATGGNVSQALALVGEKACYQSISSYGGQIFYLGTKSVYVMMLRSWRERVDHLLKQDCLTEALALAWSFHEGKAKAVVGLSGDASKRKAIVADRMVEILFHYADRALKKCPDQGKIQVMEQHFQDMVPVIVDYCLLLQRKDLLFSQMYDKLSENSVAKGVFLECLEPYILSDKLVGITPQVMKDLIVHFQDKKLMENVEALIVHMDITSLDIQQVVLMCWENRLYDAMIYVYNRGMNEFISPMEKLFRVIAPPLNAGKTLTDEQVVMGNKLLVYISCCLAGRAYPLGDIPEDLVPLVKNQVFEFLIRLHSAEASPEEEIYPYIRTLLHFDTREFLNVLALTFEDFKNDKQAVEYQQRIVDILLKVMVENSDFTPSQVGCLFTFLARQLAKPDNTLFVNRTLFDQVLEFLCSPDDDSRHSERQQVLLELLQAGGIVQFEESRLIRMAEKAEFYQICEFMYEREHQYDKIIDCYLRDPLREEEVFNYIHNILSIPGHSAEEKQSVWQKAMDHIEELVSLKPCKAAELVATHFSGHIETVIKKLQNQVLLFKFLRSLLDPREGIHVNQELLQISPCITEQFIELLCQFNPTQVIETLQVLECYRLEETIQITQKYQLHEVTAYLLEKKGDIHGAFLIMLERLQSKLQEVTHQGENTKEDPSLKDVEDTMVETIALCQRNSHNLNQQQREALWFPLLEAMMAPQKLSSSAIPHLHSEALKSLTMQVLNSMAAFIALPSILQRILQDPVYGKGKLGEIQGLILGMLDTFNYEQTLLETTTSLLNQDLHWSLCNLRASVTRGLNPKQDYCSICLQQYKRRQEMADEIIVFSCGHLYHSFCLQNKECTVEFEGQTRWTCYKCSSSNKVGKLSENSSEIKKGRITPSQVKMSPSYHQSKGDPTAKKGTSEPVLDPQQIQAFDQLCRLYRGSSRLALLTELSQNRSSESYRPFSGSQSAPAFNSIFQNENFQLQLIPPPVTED
UniProt Q5T6F2: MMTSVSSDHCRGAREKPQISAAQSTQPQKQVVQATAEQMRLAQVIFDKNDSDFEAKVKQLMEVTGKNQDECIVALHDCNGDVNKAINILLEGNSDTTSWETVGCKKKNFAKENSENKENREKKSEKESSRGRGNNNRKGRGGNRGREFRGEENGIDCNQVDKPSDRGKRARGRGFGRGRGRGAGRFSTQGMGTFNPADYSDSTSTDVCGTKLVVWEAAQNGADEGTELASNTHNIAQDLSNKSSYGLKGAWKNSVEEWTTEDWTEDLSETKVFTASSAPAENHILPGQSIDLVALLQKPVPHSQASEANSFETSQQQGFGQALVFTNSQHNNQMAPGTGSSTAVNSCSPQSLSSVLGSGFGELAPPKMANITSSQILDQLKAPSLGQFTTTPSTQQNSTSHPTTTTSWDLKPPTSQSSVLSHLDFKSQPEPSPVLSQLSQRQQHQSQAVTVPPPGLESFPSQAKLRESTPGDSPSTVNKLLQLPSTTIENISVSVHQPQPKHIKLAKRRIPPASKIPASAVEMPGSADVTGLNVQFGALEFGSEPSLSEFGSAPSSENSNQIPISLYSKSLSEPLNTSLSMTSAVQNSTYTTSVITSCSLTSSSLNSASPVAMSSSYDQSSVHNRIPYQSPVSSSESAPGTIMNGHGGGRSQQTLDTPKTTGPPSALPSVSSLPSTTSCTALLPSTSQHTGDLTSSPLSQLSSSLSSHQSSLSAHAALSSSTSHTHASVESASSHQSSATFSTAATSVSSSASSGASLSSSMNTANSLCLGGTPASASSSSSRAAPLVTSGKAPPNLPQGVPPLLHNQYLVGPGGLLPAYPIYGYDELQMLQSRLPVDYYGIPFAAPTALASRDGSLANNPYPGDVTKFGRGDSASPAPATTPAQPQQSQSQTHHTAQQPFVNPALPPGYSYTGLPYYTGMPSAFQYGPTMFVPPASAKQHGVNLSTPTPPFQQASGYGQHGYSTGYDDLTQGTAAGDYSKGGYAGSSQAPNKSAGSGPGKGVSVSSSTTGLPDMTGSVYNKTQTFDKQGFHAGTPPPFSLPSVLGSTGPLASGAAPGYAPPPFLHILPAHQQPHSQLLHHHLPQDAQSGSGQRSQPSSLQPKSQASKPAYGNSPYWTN
UniProt P51668: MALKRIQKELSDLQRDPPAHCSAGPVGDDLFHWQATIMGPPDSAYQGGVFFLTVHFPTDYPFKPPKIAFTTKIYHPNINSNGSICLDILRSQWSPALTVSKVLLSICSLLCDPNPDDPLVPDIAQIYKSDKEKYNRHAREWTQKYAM
UniProt P21796, whole entry: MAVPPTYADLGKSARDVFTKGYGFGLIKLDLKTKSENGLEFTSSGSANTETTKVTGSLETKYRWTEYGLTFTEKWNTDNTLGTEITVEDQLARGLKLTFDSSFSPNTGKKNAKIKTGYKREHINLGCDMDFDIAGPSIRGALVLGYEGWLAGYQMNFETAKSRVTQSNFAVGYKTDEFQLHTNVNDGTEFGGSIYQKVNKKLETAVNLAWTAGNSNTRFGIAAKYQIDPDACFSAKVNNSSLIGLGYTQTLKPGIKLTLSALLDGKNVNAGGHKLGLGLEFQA
UniProt Q9UHP3: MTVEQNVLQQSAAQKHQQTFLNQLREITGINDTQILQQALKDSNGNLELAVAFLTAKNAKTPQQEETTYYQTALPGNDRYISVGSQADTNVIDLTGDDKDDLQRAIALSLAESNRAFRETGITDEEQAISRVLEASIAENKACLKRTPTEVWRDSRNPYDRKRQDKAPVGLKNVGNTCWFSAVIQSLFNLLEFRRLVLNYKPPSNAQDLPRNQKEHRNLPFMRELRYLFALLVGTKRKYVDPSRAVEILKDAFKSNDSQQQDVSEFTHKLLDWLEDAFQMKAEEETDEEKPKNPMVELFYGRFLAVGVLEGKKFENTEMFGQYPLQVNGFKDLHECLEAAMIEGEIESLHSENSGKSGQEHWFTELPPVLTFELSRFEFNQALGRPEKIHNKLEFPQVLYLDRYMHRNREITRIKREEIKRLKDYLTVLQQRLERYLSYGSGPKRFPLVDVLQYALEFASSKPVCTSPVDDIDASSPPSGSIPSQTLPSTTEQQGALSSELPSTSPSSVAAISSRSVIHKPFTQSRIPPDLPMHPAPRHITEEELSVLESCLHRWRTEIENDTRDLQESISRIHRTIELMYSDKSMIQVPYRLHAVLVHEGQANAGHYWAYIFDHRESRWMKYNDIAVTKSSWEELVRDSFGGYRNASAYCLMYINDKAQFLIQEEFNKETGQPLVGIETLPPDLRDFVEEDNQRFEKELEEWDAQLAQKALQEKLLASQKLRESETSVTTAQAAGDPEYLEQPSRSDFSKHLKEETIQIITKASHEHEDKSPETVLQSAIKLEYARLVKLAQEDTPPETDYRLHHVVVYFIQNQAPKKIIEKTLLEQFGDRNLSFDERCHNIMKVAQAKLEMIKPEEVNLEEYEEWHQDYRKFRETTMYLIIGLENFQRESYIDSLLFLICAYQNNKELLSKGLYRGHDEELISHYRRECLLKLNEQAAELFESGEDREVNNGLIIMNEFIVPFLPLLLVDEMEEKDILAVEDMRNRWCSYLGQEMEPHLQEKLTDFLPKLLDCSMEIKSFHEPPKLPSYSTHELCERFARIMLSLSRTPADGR
UniProt Q71U36, whole entry: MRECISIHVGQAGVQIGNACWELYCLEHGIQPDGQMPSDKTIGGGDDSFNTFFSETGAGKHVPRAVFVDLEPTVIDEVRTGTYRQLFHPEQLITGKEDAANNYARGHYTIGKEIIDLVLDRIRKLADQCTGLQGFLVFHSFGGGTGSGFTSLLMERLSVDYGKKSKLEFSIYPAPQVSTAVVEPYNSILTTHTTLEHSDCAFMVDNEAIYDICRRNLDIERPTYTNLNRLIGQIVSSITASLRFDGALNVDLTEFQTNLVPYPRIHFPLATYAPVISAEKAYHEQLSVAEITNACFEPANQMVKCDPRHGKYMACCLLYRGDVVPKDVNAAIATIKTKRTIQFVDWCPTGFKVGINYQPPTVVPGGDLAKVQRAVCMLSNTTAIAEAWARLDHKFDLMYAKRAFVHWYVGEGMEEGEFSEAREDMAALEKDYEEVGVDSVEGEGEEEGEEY

| Target | dose-dependent thermal stabilisation call |
| --- | --- |
| VPS25 (UniProt Q9BRG1) | inactive: 0 |
| USP7 (UniProt Q93009) | inactive: 0 |
| TXNDC15 (UniProt Q96J42) | inactive: 0 |
| UBR1 (UniProt Q8IWV7) | inactive: 0 |
| VPS26B (UniProt Q4G0F5) | inactive: 0 |
| ULK3 (UniProt Q6PHR2) | inactive: 0 |
| VPS8 (UniProt Q8N3P4) | inactive: 0 |
| UBAP2 (UniProt Q5T6F2) | inactive: 0 |
| UBA1 (UniProt P22314) | inactive: 0 |
| UNC119B (UniProt A6NIH7) | inactive: 0 |
| VPS4A (UniProt Q9UN37) | inactive: 0 |
| URM1 (UniProt Q9BTM9) | inactive: 0 |
| USP19 (UniProt O94966) | inactive: 0 |
| VPRBP (UniProt Q9Y4B6) | inactive: 0 |
| TXNL4B (UniProt Q9NX01) | inactive: 0 |
| UNK (UniProt Q9C0B0) | inactive: 0 |
| TUBGCP4 (UniProt Q9UGJ1) | inactive: 0 |
| TWF1 (UniProt Q12792) | inactive: 0 |

Random excerpt: 3 entries already listed.

| Target | dose-dependent thermal stabilisation call |
| --- | --- |
| ULK3 (UniProt Q6PHR2) | inactive: 0 |
| UBA1 (UniProt P22314) | inactive: 0 |
| TWF1 (UniProt Q12792) | inactive: 0 |

(cont.)

| Target | dose-dependent thermal stabilisation call |
| --- | --- |
| UBE2D1 (UniProt P51668) | inactive: 0 |
| UCHL3 (UniProt P15374) | inactive: 0 |
| UGP2 (UniProt Q16851) | inactive: 0 |
| UBP1 (UniProt Q9NZI7) | inactive: 0 |
| UBXN7 (UniProt O94888) | inactive: 0 |
| UFC1 (UniProt Q9Y3C8) | inactive: 0 |
| USP28 (UniProt Q96RU2) | inactive: 0 |
| VDAC1 (UniProt P21796) | inactive: 0 |
| UBE2V2 (UniProt Q15819) | inactive: 0 |
| VPS13C (UniProt Q709C8) | inactive: 0 |
| UEVLD (UniProt Q8IX04) | inactive: 0 |
| VPS13D (UniProt Q5THJ4) | inactive: 0 |
| USP25 (UniProt Q9UHP3) | inactive: 0 |
| TUBA1A (UniProt Q71U36) | inactive: 0 |
| TTC4 (UniProt O95801) | inactive: 0 |
| USP38 (UniProt Q8NB14) | inactive: 0 |
| UVRAG (UniProt Q9P2Y5) | inactive: 0 |
| UBL7 (UniProt Q96S82) | inactive: 0 |

Source: the supplement of paper PMC7666118
